In the supplement of paper PMC6411743:
± gives the standard deviation of the averaged measurements. The list shows a part of the results, in another mix than the full data.

By UniProt entry, the sequences of proteins in these tests, tags left out. Where a name states a change or a piece, a line headed by the entry shows the natural chain unless it says otherwise.
UniProt Q92621: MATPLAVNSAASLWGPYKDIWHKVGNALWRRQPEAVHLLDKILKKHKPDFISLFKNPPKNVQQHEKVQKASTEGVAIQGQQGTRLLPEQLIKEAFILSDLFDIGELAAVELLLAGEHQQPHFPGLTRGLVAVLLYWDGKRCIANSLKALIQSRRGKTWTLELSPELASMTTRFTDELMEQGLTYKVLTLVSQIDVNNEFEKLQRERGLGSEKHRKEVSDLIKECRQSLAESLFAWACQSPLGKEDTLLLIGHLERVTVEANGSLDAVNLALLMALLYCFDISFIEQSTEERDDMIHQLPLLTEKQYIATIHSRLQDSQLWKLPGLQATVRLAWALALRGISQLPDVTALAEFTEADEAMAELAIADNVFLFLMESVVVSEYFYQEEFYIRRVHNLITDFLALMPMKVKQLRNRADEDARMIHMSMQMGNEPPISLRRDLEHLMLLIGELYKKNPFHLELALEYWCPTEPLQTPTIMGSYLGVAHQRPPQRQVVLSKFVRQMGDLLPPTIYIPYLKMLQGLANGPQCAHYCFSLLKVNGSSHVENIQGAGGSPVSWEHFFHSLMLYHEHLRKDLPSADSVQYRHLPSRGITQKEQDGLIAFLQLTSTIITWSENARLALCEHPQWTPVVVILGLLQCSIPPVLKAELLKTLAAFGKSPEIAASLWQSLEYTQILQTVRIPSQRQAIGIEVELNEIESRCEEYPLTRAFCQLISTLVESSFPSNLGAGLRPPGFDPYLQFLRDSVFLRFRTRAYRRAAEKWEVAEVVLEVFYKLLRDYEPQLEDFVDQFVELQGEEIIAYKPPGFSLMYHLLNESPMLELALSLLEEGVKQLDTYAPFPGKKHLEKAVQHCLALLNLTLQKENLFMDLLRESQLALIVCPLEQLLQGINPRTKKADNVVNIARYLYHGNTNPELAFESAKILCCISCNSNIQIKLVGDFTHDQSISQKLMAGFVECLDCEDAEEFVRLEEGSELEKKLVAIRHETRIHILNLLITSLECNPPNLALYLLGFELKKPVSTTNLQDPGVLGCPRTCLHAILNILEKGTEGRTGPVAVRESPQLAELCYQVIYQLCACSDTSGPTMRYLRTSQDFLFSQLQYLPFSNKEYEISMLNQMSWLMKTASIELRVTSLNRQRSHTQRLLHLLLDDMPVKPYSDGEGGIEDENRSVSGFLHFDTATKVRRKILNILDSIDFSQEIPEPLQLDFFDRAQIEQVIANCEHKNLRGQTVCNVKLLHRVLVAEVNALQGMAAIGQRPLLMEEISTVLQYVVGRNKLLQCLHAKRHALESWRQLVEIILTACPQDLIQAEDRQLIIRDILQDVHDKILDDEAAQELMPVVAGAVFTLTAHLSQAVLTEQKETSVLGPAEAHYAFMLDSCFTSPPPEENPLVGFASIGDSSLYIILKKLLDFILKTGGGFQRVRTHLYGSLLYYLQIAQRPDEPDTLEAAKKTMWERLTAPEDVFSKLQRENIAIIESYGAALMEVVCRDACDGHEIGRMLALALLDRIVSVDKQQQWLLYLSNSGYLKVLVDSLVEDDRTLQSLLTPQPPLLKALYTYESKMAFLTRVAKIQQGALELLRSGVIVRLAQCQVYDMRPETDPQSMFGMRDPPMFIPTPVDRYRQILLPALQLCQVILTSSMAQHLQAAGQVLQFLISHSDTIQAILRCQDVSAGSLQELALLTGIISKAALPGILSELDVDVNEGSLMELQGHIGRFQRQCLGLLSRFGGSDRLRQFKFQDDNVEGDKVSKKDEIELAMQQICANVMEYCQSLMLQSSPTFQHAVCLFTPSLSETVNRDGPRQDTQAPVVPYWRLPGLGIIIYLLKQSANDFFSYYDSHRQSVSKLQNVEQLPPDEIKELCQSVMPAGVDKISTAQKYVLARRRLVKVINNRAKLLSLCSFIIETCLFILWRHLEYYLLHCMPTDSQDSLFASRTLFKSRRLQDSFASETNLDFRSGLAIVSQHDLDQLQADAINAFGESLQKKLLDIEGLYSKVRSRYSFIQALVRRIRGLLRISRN
UniProt Q96BJ3: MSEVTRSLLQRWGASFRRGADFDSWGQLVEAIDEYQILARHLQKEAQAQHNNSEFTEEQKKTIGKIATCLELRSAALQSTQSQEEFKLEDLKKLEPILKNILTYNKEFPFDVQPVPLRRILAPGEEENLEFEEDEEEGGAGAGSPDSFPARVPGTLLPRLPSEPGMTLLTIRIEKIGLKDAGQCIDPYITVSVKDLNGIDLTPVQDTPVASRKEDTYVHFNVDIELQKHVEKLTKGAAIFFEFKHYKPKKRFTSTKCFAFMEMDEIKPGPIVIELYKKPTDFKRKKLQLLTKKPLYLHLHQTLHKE
UniProt Q8WWK9: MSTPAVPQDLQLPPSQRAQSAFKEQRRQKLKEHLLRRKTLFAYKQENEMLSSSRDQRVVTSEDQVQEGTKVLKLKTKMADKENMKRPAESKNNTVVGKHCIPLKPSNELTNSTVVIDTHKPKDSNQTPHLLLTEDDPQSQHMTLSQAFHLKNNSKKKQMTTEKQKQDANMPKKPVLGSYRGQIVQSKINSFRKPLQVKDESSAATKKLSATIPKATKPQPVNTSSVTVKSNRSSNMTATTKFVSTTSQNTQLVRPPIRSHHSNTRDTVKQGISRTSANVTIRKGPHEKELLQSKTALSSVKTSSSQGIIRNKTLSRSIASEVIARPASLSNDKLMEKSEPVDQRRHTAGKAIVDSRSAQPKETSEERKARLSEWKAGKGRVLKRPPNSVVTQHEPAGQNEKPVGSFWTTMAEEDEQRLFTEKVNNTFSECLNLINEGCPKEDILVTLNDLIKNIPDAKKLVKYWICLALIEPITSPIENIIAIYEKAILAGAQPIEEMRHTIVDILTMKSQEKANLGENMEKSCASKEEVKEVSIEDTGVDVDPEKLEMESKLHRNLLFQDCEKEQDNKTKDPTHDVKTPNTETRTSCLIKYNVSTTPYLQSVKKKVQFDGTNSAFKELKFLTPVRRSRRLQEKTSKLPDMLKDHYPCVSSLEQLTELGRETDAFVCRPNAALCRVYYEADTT
UniProt Q92974: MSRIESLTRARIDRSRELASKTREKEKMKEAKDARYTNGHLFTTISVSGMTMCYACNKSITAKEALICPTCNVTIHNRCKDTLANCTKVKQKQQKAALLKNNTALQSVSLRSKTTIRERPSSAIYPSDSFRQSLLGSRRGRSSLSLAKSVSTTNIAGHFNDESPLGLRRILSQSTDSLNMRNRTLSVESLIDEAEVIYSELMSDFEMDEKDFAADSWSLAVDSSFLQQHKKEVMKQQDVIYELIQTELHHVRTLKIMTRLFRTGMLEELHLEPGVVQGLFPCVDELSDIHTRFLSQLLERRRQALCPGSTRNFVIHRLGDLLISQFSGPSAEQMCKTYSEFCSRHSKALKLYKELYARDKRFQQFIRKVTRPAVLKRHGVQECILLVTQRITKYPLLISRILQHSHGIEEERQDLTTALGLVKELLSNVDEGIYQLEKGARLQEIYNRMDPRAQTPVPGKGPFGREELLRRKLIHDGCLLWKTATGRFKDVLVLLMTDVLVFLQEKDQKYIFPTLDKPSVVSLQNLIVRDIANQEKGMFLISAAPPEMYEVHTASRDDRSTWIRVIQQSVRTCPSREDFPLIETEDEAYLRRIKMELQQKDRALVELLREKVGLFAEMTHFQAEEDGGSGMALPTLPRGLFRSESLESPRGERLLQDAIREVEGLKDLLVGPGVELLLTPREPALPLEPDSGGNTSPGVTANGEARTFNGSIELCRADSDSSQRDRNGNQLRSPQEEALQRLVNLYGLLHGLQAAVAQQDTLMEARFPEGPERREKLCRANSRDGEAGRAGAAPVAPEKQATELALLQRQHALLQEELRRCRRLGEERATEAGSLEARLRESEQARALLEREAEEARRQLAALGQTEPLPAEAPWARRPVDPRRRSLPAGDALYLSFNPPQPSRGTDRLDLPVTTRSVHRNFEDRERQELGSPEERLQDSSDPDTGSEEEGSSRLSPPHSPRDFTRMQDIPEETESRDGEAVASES
UniProt Q969G3, whole entry: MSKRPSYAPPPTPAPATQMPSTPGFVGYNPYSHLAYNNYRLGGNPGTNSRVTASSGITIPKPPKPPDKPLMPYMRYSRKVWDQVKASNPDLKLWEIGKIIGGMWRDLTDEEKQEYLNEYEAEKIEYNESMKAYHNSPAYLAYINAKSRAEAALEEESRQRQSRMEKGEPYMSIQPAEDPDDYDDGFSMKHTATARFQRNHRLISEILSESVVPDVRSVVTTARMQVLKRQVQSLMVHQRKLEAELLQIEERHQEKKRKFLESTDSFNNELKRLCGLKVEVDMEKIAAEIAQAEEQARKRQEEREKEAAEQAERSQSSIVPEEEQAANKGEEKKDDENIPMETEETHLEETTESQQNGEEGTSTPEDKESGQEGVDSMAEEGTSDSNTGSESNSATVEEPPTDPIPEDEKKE
UniProt Q93074, whole entry: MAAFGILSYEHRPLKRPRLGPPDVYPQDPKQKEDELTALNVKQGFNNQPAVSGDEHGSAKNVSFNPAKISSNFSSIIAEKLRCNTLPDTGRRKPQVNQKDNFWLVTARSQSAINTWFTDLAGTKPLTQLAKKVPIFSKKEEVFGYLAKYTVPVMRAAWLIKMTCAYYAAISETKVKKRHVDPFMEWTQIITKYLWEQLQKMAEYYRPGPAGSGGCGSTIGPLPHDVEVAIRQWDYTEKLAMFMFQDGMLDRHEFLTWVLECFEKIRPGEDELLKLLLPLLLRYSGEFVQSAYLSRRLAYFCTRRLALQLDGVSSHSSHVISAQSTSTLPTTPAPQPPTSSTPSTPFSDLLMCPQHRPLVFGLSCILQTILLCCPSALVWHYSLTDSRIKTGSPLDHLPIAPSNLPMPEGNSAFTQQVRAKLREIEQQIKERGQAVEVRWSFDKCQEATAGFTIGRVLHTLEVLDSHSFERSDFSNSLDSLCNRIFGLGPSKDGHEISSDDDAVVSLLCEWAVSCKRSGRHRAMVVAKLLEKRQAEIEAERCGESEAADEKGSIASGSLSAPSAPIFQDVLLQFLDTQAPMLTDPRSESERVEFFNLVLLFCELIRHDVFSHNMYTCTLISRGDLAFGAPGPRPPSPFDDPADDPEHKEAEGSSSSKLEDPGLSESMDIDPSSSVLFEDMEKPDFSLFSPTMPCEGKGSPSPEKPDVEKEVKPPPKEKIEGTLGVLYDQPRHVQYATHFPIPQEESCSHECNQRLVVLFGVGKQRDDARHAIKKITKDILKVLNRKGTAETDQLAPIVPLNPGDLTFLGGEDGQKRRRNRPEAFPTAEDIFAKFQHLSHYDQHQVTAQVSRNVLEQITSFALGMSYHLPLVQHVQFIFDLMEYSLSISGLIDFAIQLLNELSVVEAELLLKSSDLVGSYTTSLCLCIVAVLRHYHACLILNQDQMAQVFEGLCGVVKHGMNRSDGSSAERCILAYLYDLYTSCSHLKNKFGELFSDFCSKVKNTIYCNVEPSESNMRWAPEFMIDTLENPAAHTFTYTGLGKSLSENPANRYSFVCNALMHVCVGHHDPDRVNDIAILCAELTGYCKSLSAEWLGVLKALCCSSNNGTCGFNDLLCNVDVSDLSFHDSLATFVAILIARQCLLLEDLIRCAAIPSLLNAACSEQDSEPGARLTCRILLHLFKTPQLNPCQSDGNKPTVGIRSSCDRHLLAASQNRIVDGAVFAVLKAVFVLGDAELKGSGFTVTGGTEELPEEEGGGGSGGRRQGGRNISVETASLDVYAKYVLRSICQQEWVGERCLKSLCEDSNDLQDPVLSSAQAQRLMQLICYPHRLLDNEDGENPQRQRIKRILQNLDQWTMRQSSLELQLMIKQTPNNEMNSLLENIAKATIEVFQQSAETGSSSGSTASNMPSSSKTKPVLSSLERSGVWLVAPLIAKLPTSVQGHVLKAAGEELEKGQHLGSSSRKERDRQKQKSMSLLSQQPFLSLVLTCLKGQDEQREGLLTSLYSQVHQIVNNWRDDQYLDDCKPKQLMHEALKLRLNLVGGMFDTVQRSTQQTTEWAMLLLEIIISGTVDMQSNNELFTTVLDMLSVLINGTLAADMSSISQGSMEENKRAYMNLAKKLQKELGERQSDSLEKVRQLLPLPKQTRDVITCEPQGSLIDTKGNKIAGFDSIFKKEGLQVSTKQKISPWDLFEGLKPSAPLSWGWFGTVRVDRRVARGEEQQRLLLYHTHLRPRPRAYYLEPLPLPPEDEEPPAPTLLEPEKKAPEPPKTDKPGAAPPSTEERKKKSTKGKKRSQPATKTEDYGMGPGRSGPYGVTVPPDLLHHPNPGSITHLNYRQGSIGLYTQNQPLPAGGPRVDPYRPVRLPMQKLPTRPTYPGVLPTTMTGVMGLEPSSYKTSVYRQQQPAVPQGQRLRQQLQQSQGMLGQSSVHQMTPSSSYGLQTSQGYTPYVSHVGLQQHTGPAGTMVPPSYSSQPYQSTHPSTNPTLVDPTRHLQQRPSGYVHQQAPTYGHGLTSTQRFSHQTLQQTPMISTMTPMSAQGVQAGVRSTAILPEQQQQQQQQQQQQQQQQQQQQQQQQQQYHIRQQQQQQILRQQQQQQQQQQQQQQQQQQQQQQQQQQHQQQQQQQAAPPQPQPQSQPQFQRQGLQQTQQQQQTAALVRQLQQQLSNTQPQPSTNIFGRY

Compound: Nc1ncnc2c1ncn2[C@@H]1O[C@H](COP(=O)(O)OP(=O)(O)OP(=O)(O)O)[C@@H](O)[C@H]1O [adenosine triphosphate]
Test: NP40-soluble protein abundance relative to vehicle (solubility fold change) (ratio); higher = more soluble protein in presence of ATP
Conditions: concentration: 1mM
How it was run: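 Across three independent experiments, values are fold changes against the detergent-processed vehicle for each replicate, based on vsn-normalised intensities. The samples were Jurkat crude lysate treated with eight concentrations (0.1 to 10 mM) for 10 min at room temperature and then 3 min at 37 °C. Lysate was solubilised with 0.8% NP40 and benzonase, ultracentrifuged, and the supernatant analysed by TMT-labelled LC-MS/MS.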

Point of comparison: NUP205 (UniProt Q92621), NP40-soluble protein abundance 1.03 ± 0.12. Against it:
- AIDA (UniProt Q96BJ3) — within error, 1 ± 0.035
- UniProt Q8WWK9 and related entries — within error, 0.98 ± 0.028
- PIGK (UniProt Q92643) — the same, 1.03 ± 0.18
- UniProt Q92974 and related entries — within error, 1.02 ± 0.016
- UniProt Q969G3 and related entries — within error, 1.02 ± 0.098
- UniProt Q93074 and related entries — within error, 1.04 ± 0.022
- UniProt Q8TE02 and related entries — within error, 1.01 ± 0.068
- GGH (UniProt Q92820) — within error, 0.9257 ± 0.006

Same assay, conditions: concentration: 2mM

Point of comparison: UniProt Q93015 and related entries, NP40-soluble protein abundance 0.934 ± 0.029. Against it:
- SPRYD4 (UniProt Q8WW59) — within error, 1.02 ± 0.12
- UniProt Q8TCY9 — within error, 0.976 ± 0.086
- ZKSCAN4 (UniProt Q969J2) — higher, 1.132 ± 0.0066
- RTF1 (UniProt Q92541) — within error, 0.909 ± 0.036
- UniProt Q92845 and related entries — within error, 0.992 ± 0.086
- ERGIC1 (UniProt Q969X5) — within error, 0.998 ± 0.072
- PPP1R13L (UniProt Q8WUF5) — within error, 0.982 ± 0.032
- DPF3 (UniProt Q92784) — within error, 1.06 ± 0.12
- MRPL24 (UniProt Q96A35) — within error, 0.869 ± 0.066
- UniProt Q92766 and related entries — higher, 1.07 ± 0.043
- C18orf32 (UniProt Q8TCD1) — within error, 0.868 ± 0.1
- ZC3H15 (UniProt Q8WU90) — within error, 0.962 ± 0.013
- ITFG2 (UniProt Q969R8) — within error, 0.956 ± 0.048
- UniProt Q92622 and related entries — within error, 0.932 ± 0.06
- UniProt Q8TBX8 and related entries — higher, 1.07 ± 0.053
- ERCC4 (UniProt Q92889) — higher, 1.05 ± 0.076
- UniProt Q8TCZ2 and related entries — lower, 0.856 ± 0.029
- UniProt Q969P0 and related entries — within error, 0.977 ± 0.017
- STYX (UniProt Q8WUJ0) — within error, 1.05 ± 0.16
- NTAN1 (UniProt Q96AB6) — higher, 1.06 ± 0.069
- PSPC1 (UniProt Q8WXF1) — higher, 1.03 ± 0.05
- UniProt Q8WVM7 and related entries — within error, 1.06 ± 0.1
- UniProt Q8TEX9 and related entries — within error, 0.964 ± 0.051
- UBXN4 (UniProt Q92575) — within error, 0.967 ± 0.035
- NSUN6 (UniProt Q8TEA1) — higher, 1.01 ± 0.038
- UniProt Q96AE7-2|Q96AE7 — within error, 0.986 ± 0.16
- NUP205 (UniProt Q92621) — within error, 1.04 ± 0.096
- AIDA (UniProt Q96BJ3) — higher, 1.03 ± 0.038
- UniProt Q8WWK9 and related entries — higher, 0.9894 ± 0.00078
- PIGK (UniProt Q92643) — higher, 1.06 ± 0.059
- UniProt Q92974 and related entries — higher, 1.01 ± 0.036
- UniProt Q969G3 and related entries — within error, 1.01 ± 0.086
- UniProt Q93074 and related entries — higher, 1.01 ± 0.016
- UniProt Q8TE02 and related entries — within error, 0.924 ± 0.053
- GGH (UniProt Q92820) — within error, 0.95 ± 0.044

Same assay, conditions: concentration: 4mM

Point of comparison: ZC3H15 (UniProt Q8WU90), NP40-soluble protein abundance 0.955 ± 0.017. Against it:
- SPRYD4 (UniProt Q8WW59) — within error, 1 ± 0.11
- UniProt Q8TCY9 — within error, 1.04 ± 0.07
- ZKSCAN4 (UniProt Q969J2) — higher, 1.04 ± 0.011
- RTF1 (UniProt Q92541) — lower, 0.876 ± 0.03
- UniProt Q92845 and related entries — within error, 1.04 ± 0.13
- UniProt Q93015 and related entries — higher, 1.1 ± 0.059
- ERGIC1 (UniProt Q969X5) — within error, 0.978 ± 0.039
- PPP1R13L (UniProt Q8WUF5) — higher, 0.9866 ± 0.0095
- DPF3 (UniProt Q92784) — higher, 1.08 ± 0.096
- MRPL24 (UniProt Q96A35) — lower, 0.829 ± 0.079
- UniProt Q92766 and related entries — higher, 1.09 ± 0.034
- C18orf32 (UniProt Q8TCD1) — within error, 0.917 ± 0.071
- ITFG2 (UniProt Q969R8) — higher, 0.994 ± 0.018
- UniProt Q92622 and related entries — within error, 0.953 ± 0.081
- UniProt Q8TBX8 and related entries — higher, 1.08 ± 0.032
- ERCC4 (UniProt Q92889) — within error, 1.03 ± 0.083
- UniProt Q8TCZ2 and related entries — lower, 0.833 ± 0.049
- UniProt Q969P0 and related entries — the same, 0.955 ± 0.029
- STYX (UniProt Q8WUJ0) — within error, 1.02 ± 0.1
- NTAN1 (UniProt Q96AB6) — higher, 1.08 ± 0.073
- PSPC1 (UniProt Q8WXF1) — higher, 1.01 ± 0.017
- UniProt Q8WVM7 and related entries — higher, 1.02 ± 0.016
- UniProt Q8TEX9 and related entries — within error, 0.939 ± 0.029
- UBXN4 (UniProt Q92575) — within error, 0.965 ± 0.03
- NSUN6 (UniProt Q8TEA1) — within error, 0.997 ± 0.027
- UniProt Q96AE7-2|Q96AE7 — within error, 0.994 ± 0.18
- NUP205 (UniProt Q92621) — within error, 1.05 ± 0.088
- AIDA (UniProt Q96BJ3) — within error, 1.01 ± 0.07
- UniProt Q8WWK9 and related entries — higher, 1.03 ± 0.029
- PIGK (UniProt Q92643) — within error, 1.02 ± 0.16
- UniProt Q92974 and related entries — higher, 1.02 ± 0.044
- UniProt Q969G3 and related entries — within error, 0.972 ± 0.1
- UniProt Q93074 and related entries — higher, 1.06 ± 0.04
- UniProt Q8TE02 and related entries — within error, 0.965 ± 0.067
- GGH (UniProt Q92820) — lower, 0.9271 ± 0.006
